Results published in PubChem BioAssay AID504467 (National Center for Advancing Translational Sciences (NCATS), 2011).
Among all 330,000 compounds or so, about 7,700 (2.3%) were called active. This list was built around the results that the source calls inconclusive (neither active nor inactive); the mix of calls is not that of the screen. Calls come from the whole dose curve; as a rule, active = well fitted inhibition curve with a large enough effect; inconclusive = small, poorly fitted or top-dose-only effect, or effect the other way; inactive = flat fitted curve, though single readings scatter. Where the call is inconclusive, the potency comes from a doubtful curve fit.
% is set by controls: 0 for no effect and ±100 for the full control effect; potency is the fitted concentration of half-maximal effect.

Test: qHTS screen for small molecules that inhibit ELG1-dependent DNA repair in human embryonic kidney (HEK293T) cells expressing luciferase-tagged ELG1; note: nearly all actives have a fitted effect of over 55% in size
Details: HEK293T ELG1-luciferase reporter, luminescence, 16 h, DNA damage induced by 5-fluorouridine; activity change, negative = inhibition: at 46.1 µM (top of the series)
Summary of the method: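 Cells (2,000 per well) received 5-fluorouridine plus test compound or DMSO and were incubated 16 hr at 37 °C, 5% CO2. Luciferase activity was read by luminescence 30 min after ONE-Glo addition; signal suppression marked inhibition of damage-induced ELG1 function.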
For Cc1cc(OCC(=O)O/N=C(\N)c2ccccc2)ccc1Br, the Potency was inconclusive: 23.1 µM [activator, single point].
In the case of CCCCn1nnc(NC(=S)NC(=O)c2cccs2)n1, the Potency is reported as inconclusive: 16.4 µM [activator, partial curve].
In the case of CCOC(=O)N1CCN(c2c(NCc3ccc(Cl)cc3)c(=O)c2=O)CC1, the Potency is reported as “inactive”.
With Oc1ccc(NC(=S)N=Nc2c(O)[nH]c3ccc(Br)cc23)cc1 the Potency was active: 16.4 µM.
With O=P(c1ccccc1)(c1ccccc1)C(c1ccccn1)P(=O)(c1ccccc1)c1ccccc1 the Potency was “inactive”.
For CCc1ccccc1Oc1ccc(S(=O)(=O)N2CCN(C)CC2)cn1, the Potency was inconclusive: 20.6 µM [activator, single point].
With COC(=O)Cn1c(=O)c2c(n(Cc3ccccc3)c1=O)N/C(=C/c1ccc(OC)cc1)C2=O the Potency was “inactive”.
In the case of COCCCNC(=O)CC1C[C@H](C(=O)N2CCCCC2)[C@@]2(CCc3ccccc3)c3[nH]c4ccc(OC)cc4c3CCN2C1=O (stereo not given in full), the Potency is reported as “inactive”.
With Cc1cc(C)nc(NC(N)=S)n1 the Potency was “inactive”.
In the case of O=C(CCc1nc(-c2ccccc2)no1)NCc1ccccc1CN1CCOCC1, the Potency is reported as “inactive”.
For CC(=O)NC(c1ccc2ccccc2c1)c1ccc2cccnc2c1O (stereo not given), the Potency was inconclusive: 1.3 µM [inhibitor, partial curve, poor fit].
In the case of COc1cccc(CN(C)C(=O)c2ccc3c(=O)n4c(nc3c2)CCC4)c1OC, the Potency is reported as inconclusive: 29.1 µM [activator, single point].
With COC(=O)CCC[C@H]1CC2(C[C@H](CCCO[Si](C)(C)C(C)(C)C)N1C(=O)OC(C)(C)C)OCCO2 the Potency was “inactive”.
For CCOC(=O)C(Cc1c(F)cccc1F)(NC(C)=O)C(=O)OCC, the Potency was inconclusive: 29.1 µM [activator, single point].
In the case of COC(=O)c1cc(Cl)c(NC(=O)C(C)C)cc1OC, the Potency is reported as “inactive”.
With CC1CCN(c2nnc(N)s2)CC1 the Potency was inconclusive: 4.11 µM [activator, partial curve, poor fit].
In the case of CCOC(=O)C1=C(C)Nc2ccccc2N/C1=N\S(=O)(=O)c1ccc(Cl)cc1, the Potency is reported as inconclusive: 25.9 µM [inhibitor, single point].
For O=C(COC(=O)/C=C/C(=O)OCC(=O)NC12CC3CC(CC(C3)C1)C2)NC12CC3CC(CC(C3)C1)C2, the Potency was inconclusive: 29.1 µM [inhibitor, single point].
For O=c1[nH]c2ccccc2n1CCCSCCCn1c(=O)[nH]c2ccccc21, the Potency was inconclusive: 29.1 µM [inhibitor, single point].
For CN(C)S(=O)(=O)c1ccc(C(=O)N2CCC(c3nc4ccccc4o3)CC2)cc1, the Potency was inconclusive: 7.31 µM [inhibitor, partial curve, poor fit].
For Cc1ccccc1NC(=O)CSc1nc2ccc(Nc3nc(N4CCOCC4)nc(N4CCOCC4)n3)cc2s1, the Potency was active: 1.3 µM.
With CC(=O)c1cccc(Nc2ccc(-c3ccccc3F)nn2)c1 the Potency was inconclusive: 16.4 µM [activator, partial curve].
For CCN(CC)c1ccc(C(=O)NNC(=O)CN2C(=O)NC(C)(c3ccccc3)C2=O)cc1 (stereo not given), the Potency was inconclusive: 18.3 µM [activator, partial curve, poor fit].
With COc1cccc(-c2nc(S(=O)(=O)c3ccccc3)c(N3CCOCC3)o2)c1 the Potency was inconclusive: 29.1 µM [inhibitor, single point].
With CCn1c(SCC(=O)Nc2cccc(NC(C)=O)c2)nnc1-c1ccco1 the Potency was “inactive”.
With CCN(CC)c1ccc(C(=O)NNC(=O)CCNC(=O)c2ccccc2)cc1 the Potency was inconclusive: 23.1 µM [activator, single point].
For O=C(CCNC(=O)c1ccc([N+](=O)[O-])cc1)Nc1cccc(S(=O)(=O)N2CCCCC2)c1, the Potency was inconclusive: 18.3 µM [inhibitor, single point].
In the case of S=C(Nc1cccnc1)NC1CCCCCCC1, the Potency is reported as “inactive”.
In the case of CC(C)=CCCC(C)CN1CCC(n2nccc2NC(=O)C2CCCC2)CC1 (stereo not given), the Potency is reported as “inactive”.
With COc1cc2oc(=O)cc(-c3cccc(-c4cccc(C)c4)c3)c2c(OC)c1OC the Potency was active: 20.6 µM.
In the case of COc1ccc(-c2nn(-c3ccccc3)cc2/C=N/N=C(N)N)cc1OC, the Potency is reported as inconclusive: 18.4 µM [inhibitor, partial curve].
For Cc1nc(C(=O)NCCC(C)C)sc1C1(C)CC(c2cccc([N+](=O)[O-])c2)=NO1 (stereo not given), the Potency was inconclusive: 23.1 µM [inhibitor, single point].
With Oc1c(Br)cc(Br)cc1CNc1ccccn1 the Potency was inconclusive: 29.1 µM [activator, single point].
For CCOC(=O)/C(=C\c1ccc(C)cc1)NC(=O)c1ccccc1, the Potency was “inactive”.
For COc1ccc(C(CCNCc2ccc(OC(C)C)cc2)c2ccccc2OC)cc1 (stereo not given), the Potency was inconclusive: 18.3 µM [inhibitor, partial curve, poor fit].
With O=C(NCc1ccccc1C(F)(F)F)C1CC(c2ccc(C(F)(F)F)cc2)=NO1 (stereo not given) the Potency was “inactive”.
With CCN1CCN(C(=O)C2c3cc(OC)c(OC)cc3C(=O)N(C)C2c2ccc(SC)cc2)CC1 (stereo not given) the Potency was inconclusive: 20.6 µM [inhibitor, partial curve].
With COc1ccc(CN2CC(C(=O)NCCCN3CCCCC3)CC2=O)cc1 (stereo not given) the Potency was “inactive”.
With Cc1ccc(Cl)cc1-n1c(SCC(=O)NCCC2=CCCCC2)nc2n[nH]c(C)c2c1=N the Potency was “inactive”.
For CC1(c2ccc(OC(F)F)cc2)NC(=O)N(CC(=O)Nc2ccc(N3CCCCC3)cc2)C1=O (stereo not given), the Potency was “inactive”.
For O=C(/C=C/c1ccccc1)Nc1ccc(Cl)cn1, the Potency was inconclusive: 8.2 µM [activator, partial curve].
With CC(C)CC(=O)Nc1ccccc1N1CCCC1 the Potency was “inactive”.
In the case of COc1ccc(C2(C)NC(=O)N(CC(=O)NC3CC3)C2=O)cc1 (stereo not given), the Potency is reported as “inactive”.
In the case of CC1=C(C(=O)Nc2cc(C)ccn2)C(c2ccc(C)cc2)C2=C(CCCC2=O)N1 (stereo not given), the Potency is reported as “inactive”.
In the case of CCc1c(C)nc(SCC(=O)N2CCCCC2)[nH]c1=O, the Potency is reported as inconclusive: 20.6 µM [activator, single point].
For Cc1nnsc1SCCNC(=O)c1c(F)cccc1F, the Potency was inconclusive: 29.1 µM [activator, partial curve, poor fit].
With CCOC(=O)N1CCN(C(=O)c2ccccc2NS(=O)(=O)c2ccc(C)cc2)CC1 the Potency was “inactive”.
In the case of COc1ccc(Cc2nn3c(-c4cc(OC)c(OC)c(OC)c4)nnc3s2)cc1, the Potency is reported as inconclusive: 10.3 µM [inhibitor, partial curve].
For NS(=O)(=O)c1ccc(N2N=C(c3ccccc3)CC2c2cccc(Br)c2)cc1 (stereo not given), the Potency was inconclusive: 29.1 µM [inhibitor, partial curve, poor fit].
For Cc1cc(C)cc(OCC(=O)NCc2nc(-c3ccccc3)no2)c1, the Potency was inconclusive: 16.4 µM [inhibitor, single point].
For O=C(COc1ccc(/C=N/NC(=O)c2cc3ccccc3o2)cc1Br)Nc1ccccc1, the Potency was inconclusive: 2.31 µM [activator, partial curve].
For CC[C@]12c3[nH]c4cc(CCC(=O)N(C)C)ccc4c3CCN1C(=O)[C@@H](CC(=O)NCCCn1ccnc1)C[C@@H]2C(=O)N1CCN(C(=O)c2ccco2)CC1, the Potency was inconclusive: 20.6 µM [activator, single point].
For CCN(CC)S(=O)(=O)c1ccc(NC2=NS(=O)(=O)c3ccccc32)cc1, the Potency was “inactive”.
In the case of C/C(N)=C(/C#N)C(=O)CSc1nnc(-c2ccccc2)n1C, the Potency is reported as inconclusive: 14.6 µM [activator, partial curve].
For COc1ccc(C(=O)CN2Cc3ccccc3C2=N)cc1, the Potency was inconclusive: 1.46 µM [activator, full curve].
In the case of O=C(O)c1ccccc1CSc1nc2ccccc2o1, the Potency is reported as inconclusive: 18.4 µM [activator, partial curve].
With Cc1nn(-c2ccccc2)c(C)c1NC(=O)COC(=O)c1cc([N+](=O)[O-])ccc1NCCO the Potency was inconclusive: 4.11 µM [inhibitor, partial curve, poor fit].
For CCc1nnc(NC(=O)CSc2nc3[nH]c(=O)cc(O)c3s2)s1, the activity change, negative = inhibition was inconclusive: 39.7% [activator].
For O=C(NC1CCCC1)C(c1cccnc1)N(Cc1ccccc1)C(=O)c1csnn1 (stereo not given), the Potency was “inactive”.
For O=C(CSc1nc2ccccc2c(=O)[nH]1)Nc1ccccc1C(F)(F)F, the Potency was “inactive”.
With CCC(C)(C)C1CCc2[nH]nc(C(=O)NCc3ccccn3)c2C1 (stereo not given) the Potency was “inactive”.
For Cc1ccc(NC(=O)c2nc[nH]c2C(=O)NCCCCCNC(=O)OC(C)(C)C)cc1, the Potency was active: 23.1 µM.
For CCOc1ccc(S(=O)(=O)/N=C(/Nc2ccc(C(C)=O)cc2)c2ccccc2)cc1, the Potency was inconclusive: 23.1 µM [inhibitor, single point].
In the case of O=C(NCCc1nc2ccc(Cl)cc2[nH]1)C1CCC(=O)N(Cc2cccc(F)c2)C1 (stereo not given), the Potency is reported as “inactive”.
For O=C(COc1ccc(F)cc1Br)N1CCN(c2ncccn2)CC1, the Potency was “inactive”.
In the case of O=C(Nc1ccc2nc3n(c(=O)c2c1)CCCCC3)c1cc([N+](=O)[O-])ccc1F, the Potency is reported as inconclusive: 3.26 µM [activator, partial curve].
With CC1CCc2[nH]c3ccc(C(=O)N(C)CC(=O)Nc4ccccc4Br)cc3c2C1 (stereo not given) the Potency was inconclusive: 13 µM [inhibitor, partial curve, poor fit].
With N#Cc1ccccc1OCC(=O)NC1CCCCC1 the Potency was inconclusive: 8.2 µM [activator, partial curve].
In the case of COC(=O)c1c(NC(=O)c2nc3nc(C)cc(C(F)F)n3n2)sc2c1CCC2, the Potency is reported as active: 23.1 µM.
For COc1ccc(OC)c(C(=O)COC(=O)c2ccccc2O)c1, the Potency was inconclusive: 15.8 µM [activator, single point].
